Experimental data published in publication PMC12827643.
Results are given in words; binding and its absence hold for the method and conditions named. In cells and extracts the contact can be indirect. Some binding calls cover weakened binding; strength is not graded here.

Molecular target: T1, RANK (mouse (endogenous in RAW264.7)) (UniProt O35305)
T1 sequence: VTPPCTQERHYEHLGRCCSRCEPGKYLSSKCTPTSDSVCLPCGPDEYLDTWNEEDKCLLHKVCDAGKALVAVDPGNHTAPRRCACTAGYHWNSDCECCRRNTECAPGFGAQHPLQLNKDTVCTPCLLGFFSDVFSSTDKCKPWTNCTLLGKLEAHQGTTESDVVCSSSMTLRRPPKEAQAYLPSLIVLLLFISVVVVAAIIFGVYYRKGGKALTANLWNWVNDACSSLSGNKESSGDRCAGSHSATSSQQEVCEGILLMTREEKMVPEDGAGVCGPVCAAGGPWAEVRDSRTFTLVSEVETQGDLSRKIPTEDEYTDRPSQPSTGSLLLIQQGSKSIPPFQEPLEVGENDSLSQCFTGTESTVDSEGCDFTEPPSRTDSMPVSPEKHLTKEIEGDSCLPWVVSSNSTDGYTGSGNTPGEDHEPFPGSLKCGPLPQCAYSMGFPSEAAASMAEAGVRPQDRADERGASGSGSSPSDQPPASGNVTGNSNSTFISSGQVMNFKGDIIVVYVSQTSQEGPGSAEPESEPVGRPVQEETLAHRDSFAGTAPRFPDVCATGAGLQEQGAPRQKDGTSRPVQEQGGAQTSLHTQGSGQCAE
Experiment: co-IP; RAW264.7 lysate precipitated with 2 ug anti-RANK antibody overnight at 4 °C, protein A/G-agarose, Western blot for TRAF6; cells treated with RANKL with or without CXCL13

B1: TNF receptor-associated factor 6 (TRAF6) (protein, UniProt P70196 1-530)
chain: MSLLNCENSCGSSQSSSDCCAAMAASCSAAVKDDSVSGSASTGNLSSSFMEEIQGYDVEFDPPLESKYECPICLMALREAVQTPCGHRFCKACIIKSIRDAGHKCPVDNEILLENQLFPDNFAKREILSLTVKCPNKGCLQKMELRHLEDHQVHCEFALVNCPQCQRPFQKCQVNTHIIEDCPRRQVSCVNCAVSMAYEEKEIHDQSCPLANIICEYCGTILIREQMPNHYDLDCPTAPIPCTFSVFGCHEKMQRNHLARHLQENTQLHMRLLAQAVHNVNLALRPCDAASPSRGCRPEDPNYEETIKQLESRLVRQDHQIRELTAKMETQSMYVGELKRTIRTLEDKVAEMEAQQCNGIYIWKIGNFGMHLKSQEEERPVVIHSPGFYTGRPGYKLCMRLHLQLPTAQRCANYISLFVHTMQGEYDSHLPWPFQGTIRLTILDQSEALIRQNHEEVMDAKPELLAFQRPTIPRNPKGFGYVTFMHLEALRQGTFIKDDTLLVRCEVSTRFDMGGLRKEGFQPRSTDAGV
binding: binds
